In patent US10968265B2, “Antibody-coupled cyclic peptide tyrosine tyrosine compounds as modulators of neuropeptide Y receptors” (Janssen Pharmaceutica NV, priority 2016, dated 2021):
At least one compound was matched to its structure with a doubt left.

Experiment: Weight loss in diet-induced obese mice in combination with liraglutide: chronic dosing
Type: in vivo, mouse
Details: 10.0 nmol/kg every day

CCCCCCCCCCCCCCCC(=O)N[C@@H](CCC(=O)NCCCC[C@H](NC(=O)[C@H](C)NC(=O)[C@H](C)NC(=O)[C@H](CCC(N)=O)NC(=O)CNC(=O)[C@H](CCC(=O)O)NC(=O)[C@H](CC(C)C)NC(=O)[C@H](Cc1ccc(O)cc1)NC(=O)[C@H](CO)NC(=O)[C@H](CO)NC(=O)[C@@H](NC(=O)[C@H](CC(=O)O)NC(=O)[C@H](CO)NC(=O)[C@@H](NC(=O)[C@H](Cc1ccccc1)NC(=O)[C@@H](NC(=O)CNC(=O)[C@H](CCC(=O)O)NC(=O)[C@H](C)NC(=O)[C@@H](N)Cc1cnc[nH]1)[C@@H](C)O)[C@@H](C)O)C(C)C)C(=O)N[C@@H](CCC(=O)O)C(=O)N[C@@H](Cc1ccccc1)C(=O)N[C@H](C(=O)N[C@@H](C)C(=O)N[C@@H](Cc1c[nH]c2ccccc12)C(=O)N[C@@H](CC(C)C)C(=O)N[C@H](C(=O)N[C@@H](CCCNC(=N)N)C(=O)NCC(=O)N[C@@H](CCCNC(=N)N)C(=O)NCC(=O)O)C(C)C)[C@@H](C)CC)C(=O)O [Liraglutide, liraglutide]
daily food intake (Day 0): 2.4 ± 0.1 g | daily food intake (Day 1): 1.1 ± 0.1 g | daily food intake (Day 2): 1.1 ± 0.1 g | daily food intake (Day 3): 1.5 ± 0.2 g | daily food intake (Day 4): 1.9 ± 0.2 g | daily food intake (Day 5): 1.9 ± 0.1 g | daily food intake (Day 6): 2.2 ± 0.1 g | daily food intake (Day 7): 2.3 ± 0.1 g | daily food intake (Day 8): 1.8 ± 0.1 g | daily food intake (Day 9): 1.7 ± 0.1 g | Fasting blood glucose (after 9 days treatment): 124.1 ± 4.9 mg/dL | Fasting insulin (after 9 days treatment): 3.9 ± 0.6 ng/mL | Fed blood glucose (after 9 days treatment): 112.5 ± 4.3 mg/dL
